Molecules are shown by their SMILES. This is one part of the list. Rule as the data show it: active = 150% or more and inactive = the rest. Many values rest on one well or one pass, so single values are uncertain.

The source of these data is the supplement of paper PMC12578635.

This assay relates to Staphylococcus aureus JE2-lux inside RAW 264.7 macrophages. Kind of assay: intracellular bacterial bioluminescence relative to DMSO vehicle; higher = higher intracellular bacterial metabolic activity. Particulars: 10 µM; treatment time 4 h; gentamicin 50 µg/ml.
Consider `COC(=O)COc1cc2c(-c3cc4cccc(OC)c4o3)cc(=O)oc2cc1C`, for which the intracellular bacterial bioluminescence is active: 188%. Next, `Cc1onc(-c2ccccc2)c1C(=O)N1CCc2ccccc2C1`: inactive: 81%; `O=c1c2ccccc2nc2c3ccccc3c(Cl)nn12`: inactive: 94.4%; `CC(=O)c1cccc(NC(=O)NC2CC3CCC(C2)N3Cc2ccc(F)cc2)c1` (configuration not stated): inactive: 63.7%. On to `COc1ccc(Nc2nc(-c3ccccc3)c(C(=O)Nc3cccnc3)s2)cc1`, for which the intracellular bacterial bioluminescence was inactive: 82.5%.

For the compound `O=C(Cn1c2c(c(=O)n3ncnc13)CCC2)Nc1ccccc1`, the intracellular bacterial bioluminescence was inactive: 110%. As for `CCn1nc(C)c2[nH]c(=S)n(CC3CCCO3)c(=O)c21` (configuration not stated), the intracellular bacterial bioluminescence was inactive: 104%. `O=C(CSc1ncnc2sc3c(c12)CCCC3)Nc1ccc(Br)cc1`: the intracellular bacterial bioluminescence is inactive: 88%.

As to `CCOC(=O)C1=C(C)N=c2s/c(=C/c3cc([N+](=O)[O-])ccc3O)c(=O)n2C1c1cccs1` (configuration not stated), the intracellular bacterial bioluminescence is inactive: 84.1%. Next, `Cc1ccc(C)c(NC(=O)Cn2ncn3nc4c(c3c2=O)CCCC4)c1`: inactive: 21.6%. As to `CC(C)c1ccc2nc(SCC(=O)Nc3c[nH]c(=O)[nH]c3=O)c(C#N)cc2c1`, the intracellular bacterial bioluminescence was inactive: 96.6%. For the compound `COc1ccc(S(=O)(=O)NCc2ccco2)cc1C(=O)O`, the intracellular bacterial bioluminescence is inactive: 101%.

Take `CCCc1cc(CNC(=O)C2CC(c3cnn(C)c3)=NO2)on1` (configuration not stated): the intracellular bacterial bioluminescence is inactive: 116%.

As to `Cc1nnc(SCC(=O)N2CCCCC2)n(N)c1=O`, the intracellular bacterial bioluminescence is inactive: 113%.

As to `O=C(COc1ccc(Cl)cc1)Nc1nc2ccc3ccccc3c2s1`, the intracellular bacterial bioluminescence was inactive: 99.8%.

Consider `COc1ccc2[nH]c3c(=O)n(CCCCC(=O)NCc4cccnc4)c(=S)[nH]c3c2c1`, for which the intracellular bacterial bioluminescence was inactive: 111%. On to `O=C(/C=C/c1ccccc1)Nc1nc2ccc(S(=O)(=O)N3CCCCC3)cc2s1`, for which the intracellular bacterial bioluminescence is inactive: 88.3%. Next, `COc1cccc(NC(=O)c2oc3ccccc3c2NC(=O)c2cccc([N+](=O)[O-])c2)c1`: inactive: 103%; `O=C(CSc1nccc(O)n1)Nc1ccc(C(=O)NC2CC2)cc1`: inactive: 103%. For the compound `COC(=O)c1c(NC(=O)/C(C#N)=C/c2cccs2)sc(C)c1C`, the intracellular bacterial bioluminescence was inactive: 97.9%. On to `C=CCn1c(SCCC(=O)Nc2ccc3c(c2)OCO3)nc2sc3c(c2c1=O)CCCC3`, for which the intracellular bacterial bioluminescence was inactive: 33.8%. In the case of `COc1ccc2nc(N/N=C3/C(=O)N(c4ccccc4)N=C3C)sc2c1`, the intracellular bacterial bioluminescence was inactive: 79.8%. Regarding `Cc1sc2ncnc(Sc3nnnn3-c3ccccc3)c2c1C`, the intracellular bacterial bioluminescence is inactive: 103%. Turning to `NC(=O)c1ccc(NC(=O)C(=O)N2CCC3(CC2)OCCN3S(=O)(=O)c2cccs2)cc1`, the intracellular bacterial bioluminescence was inactive: 101%.

For the compound `COc1ccc(/N=C/c2c(Nc3ccc(Cl)cc3)nc3c(C)cccn3c2=O)cc1`, the intracellular bacterial bioluminescence is inactive: 89.1%.

As for `O=C(Nc1ccccc1Cl)c1cccn2c(-c3ccc(F)cc3)nnc12`, the intracellular bacterial bioluminescence is inactive: 83.9%.

As to `Cc1nc2ccc(S(=O)(=O)Nc3cccc(-c4nc5cccnc5s4)c3C)cc2s1`, the intracellular bacterial bioluminescence is inactive: 91.6%. Regarding `Cc1cccc(CSc2ncnc3[nH]cnc23)c1`, the intracellular bacterial bioluminescence was inactive: 76.9%. Consider `Cn1c2ccc(F)cc2c2nnc(SCC(=O)Nc3cccc(O)c3)nc21`, for which the intracellular bacterial bioluminescence was inactive: 60%. As for `CS(=O)(=O)c1ccc2nc(Nc3nc4cc5c(cc4s3)OCCO5)sc2c1`, the intracellular bacterial bioluminescence is inactive: 91.1%. Consider `CN1CCN(c2nc(Nc3cccc(F)c3)c3cnn(-c4ccccc4)c3n2)CC1`, for which the intracellular bacterial bioluminescence is inactive: 134%.

Regarding `COc1ccc(-c2n[nH]c(SC(CC(=O)NCc3cccnc3)c3ccc(OC)cc3)n2)cc1` (configuration not stated), the intracellular bacterial bioluminescence was inactive: 111%.

`O=C(NCCc1c[nH]c2ccccc12)C(=O)NCC1OCCN1C(=O)c1ccc2c(c1)OCO2` (configuration not stated): the intracellular bacterial bioluminescence is inactive: 112%.

For `COc1ccnc(Cn2nc3c4ccccc4nc(C(C)(C)C)n3c2=O)c1OC`, the intracellular bacterial bioluminescence was inactive: 45.1%.

As for `Cc1nn(-c2nc(-c3ccc(F)cc3)cs2)c(O)c1CCC(=O)N1CCOCC1`, the intracellular bacterial bioluminescence is inactive: 114%. Take `CCc1nn2c(=O)cc(CSc3nnc(-c4cccc(C)c4)o3)nc2s1`: the intracellular bacterial bioluminescence was inactive: 74.9%. Take `O=C(NC(c1ccccc1)c1cccnc1)c1cc2c([nH]c1=O)CCCCC2` (configuration not stated): the intracellular bacterial bioluminescence was inactive: 116%. Next, `CC(=O)c1cccc(N/C=C(\C#N)c2nc(-c3cccc4ccccc34)cs2)c1`: inactive: 107%; `COC(=O)c1c(NC(=O)CC2Nc3ccccc3NC2=O)sc2c1CCC(C)C2` (configuration not stated): inactive: 118%. For `O=C(CN1C(=O)c2ccccc2S1(=O)=O)NC1=NN(c2ccccc2)C(=O)C1`, the intracellular bacterial bioluminescence is inactive: 137%. Consider `CCc1nn(-c2ccccc2)c2nc(-c3ccccc3)nc(SCC(=O)NC(C)(C)C)c12`, for which the intracellular bacterial bioluminescence is inactive: 106%.

In the case of `Cc1cc(NCCN2CCCCCC2)n2c(nc3ccccc32)c1C#N`, the intracellular bacterial bioluminescence is inactive: 58.7%.

As for `COC(=O)Cn1/c(=N/C(=O)c2ccc(C#N)cc2)sc2cc(F)ccc21`, the intracellular bacterial bioluminescence is inactive: 104%. On to `O=C(O)COc1ccccc1/C=C1/SC(=S)N(NC(=O)c2ccco2)C1=O`, for which the intracellular bacterial bioluminescence was inactive: 112%. In the case of `CCOc1cccc(-c2cc(C(=O)N/N=C3/C(=O)Nc4ccccc43)[nH]n2)c1`, the intracellular bacterial bioluminescence is inactive: 124%. For `O=C(NN1C(=O)CSC1=S)c1c(F)cccc1F`, the intracellular bacterial bioluminescence is inactive: 122%. Next, `CCCc1cc(C(=O)NC(c2ccccc2)c2ccnn2C)[nH]n1` (configuration not stated): inactive: 118%; `O=C(NCc1cccnc1)c1ccc(OC(F)F)cc1`: inactive: 105%; `O=C(NCc1cccnc1)C(=O)NCC1OCCCN1S(=O)(=O)c1ccc(Cl)cc1` (configuration not stated): active: 175%.

With `CCn1c(C)cc2cc(NS(=O)(=O)c3ccc4[nH]c(=O)[nH]c(=O)c4c3)ccc21`, the intracellular bacterial bioluminescence is inactive: 110%. Next, `Cc1cccc(OCc2nc(-c3ccc4c(c3)[nH]c(=O)c(=O)n4C(C)C)no2)c1`: inactive: 6.09%; `O=C(Nc1nc2ccc(Br)cc2s1)c1ccc(N2C(=O)CCC2=O)cc1`: inactive: 117%; `Fc1cccc2sc(Nc3nc4cc5c(cc4s3)OCCO5)nc12`: inactive: 103%. Consider `CCCN1CCN(c2ncnc3sc(C(=O)NCC4CCCO4)c(C)c23)CC1` (configuration not stated), for which the intracellular bacterial bioluminescence was inactive: 102%. For the compound `Clc1cccc(-n2ncc3c(NCc4ccco4)ncnc32)c1`, the intracellular bacterial bioluminescence is inactive: 71.1%. As to `Cc1cc(-n2ccnc(NCCc3ccccc3)c2=O)ccc1Br`, the intracellular bacterial bioluminescence was inactive: 86.8%. The result for `Cc1cc2c(cc1C)NC(CC(=O)Nc1ccc(Cl)c(C(F)(F)F)c1)C(=O)N2` (configuration not stated) reads inactive: 94.4%; that for `COc1cc(N2CCn3c(nc4cc(Cl)ccc43)C2)ccc1NS(C)(=O)=O`, inactive: 100%. The result for `Nc1nc(SCC(=O)NCc2ccc(F)cc2)[nH]c(=O)c1NC(=O)c1ccc(F)c(F)c1` reads inactive: 99.8%. `CCOC(=O)CSC1=NS(=O)(=O)c2ccccc2N1`: the intracellular bacterial bioluminescence was inactive: 71.4%. Take `COc1ccc(OC)c(NC(=O)C(=O)NCc2cccs2)c1`: the intracellular bacterial bioluminescence was inactive: 83.6%. Take `CC(C)(C)c1ccc(-c2cc(=O)c3cc(NC(=O)c4cccnc4)ccc3o2)cc1`: the intracellular bacterial bioluminescence is inactive: 108%. For `Cc1ccc(-n2c(N)cc(=O)nc2SCC(=O)Nc2nccs2)cc1`, the intracellular bacterial bioluminescence is inactive: 89.8%. With `Cc1cc(C)nc(SCc2cc(=O)c(OC(=O)c3cc(Cl)ccc3Cl)co2)n1`, the intracellular bacterial bioluminescence was inactive: 109%. With `O=C(O)CCCN1C(=O)C2C3CC(C2C1=O)C1C(c2cccnc2)c2sc(=O)[nH]c2SC31` (configuration not stated), the intracellular bacterial bioluminescence is inactive: 100%. Turning to `Cc1ccc(Nc2nc(C(=O)NCc3ccco3)cc3occc23)cc1`, the intracellular bacterial bioluminescence was inactive: 53.5%.

As to `CC(=O)c1cccc(NC(=O)NN2CCOCC2)c1`, the intracellular bacterial bioluminescence was inactive: 99.1%.

For `O=C(NCC1COCCO1)c1ccc(C(F)(F)F)nc1N1CCN(CCO)CC1` (configuration not stated), the intracellular bacterial bioluminescence is inactive: 120%. In the case of `CCCc1nnc(SCC(=O)Nc2ccccc2C(=O)OC)n1-n1cccc1`, the intracellular bacterial bioluminescence is inactive: 73%. As to `CCOc1ccc(-c2csc(/C(C#N)=C\c3ccc(O)c(OCC)c3)n2)cc1`, the intracellular bacterial bioluminescence was inactive: 104%.

Consider `CC(C(=O)Nc1ncc([N+](=O)[O-])s1)N1C(=O)c2ccccc2S1(=O)=O` (configuration not stated), for which the intracellular bacterial bioluminescence was inactive: 93%. With `CC(C)c1ccc(/C=C(\C#N)C(=O)Nc2cccc(Br)c2)cc1`, the intracellular bacterial bioluminescence is inactive: 111%.

Take `CSc1nc2cc(NC(=S)NC(=O)c3ccccc3)ccc2s1`: the intracellular bacterial bioluminescence is inactive: 72.3%.

In the case of `Cn1c2ccccc2n2c(=O)n(CC(=O)N3CCOCC3)nc12`, the intracellular bacterial bioluminescence is inactive: 96.7%. The result for `O=C(CS(=O)(=O)Cc1ccccc1)Nc1nc2ccc(Br)cc2s1` reads inactive: 25.4%.

With `Cc1nn2c(NCc3ccccn3)cc(C(C)(C)C)nc2c1-c1ccc(F)cc1`, the intracellular bacterial bioluminescence was inactive: 74.3%. Regarding `COc1ccccc1NC(=O)CSc1nnc2sc3ccccc3n12`, the intracellular bacterial bioluminescence was inactive: 99.8%. For `COC(=O)c1ccccc1NC(=O)c1cc2cccnc2n(C)c1=O`, the intracellular bacterial bioluminescence was inactive: 94.9%.

Take `CCOc1ccc(CCNc2nccn(-c3ccc4c(c3)OCO4)c2=O)cc1OCC`: the intracellular bacterial bioluminescence is inactive: 64.6%.

Consider `O=C1CCCN2N=C(SCC(=O)NCc3ccco3)SC2=N1`, for which the intracellular bacterial bioluminescence is inactive: 95.4%.

With `Cc1cc2cc3c(N)c(C(=O)NCc4ccco4)sc3nc2cc1C`, the intracellular bacterial bioluminescence is inactive: 90.7%. Regarding `O=C(CCn1nnc2ccccc21)N/N=C/c1cccc(O)c1`, the intracellular bacterial bioluminescence is inactive: 100%.

As for `O=C(Cn1cnc2c(cnn2-c2ccc(Cl)cc2)c1=O)N1CCc2ccccc21`, the intracellular bacterial bioluminescence is inactive: 93.7%. In the case of `CCCc1ccc(C(=O)CC2(O)C(=O)Nc3ccc(C)cc32)cc1` (configuration not stated), the intracellular bacterial bioluminescence is inactive: 107%. For `CCCCc1ccc(NC(=O)CSc2nc(=O)n3ccccc3n2)cc1`, the intracellular bacterial bioluminescence is inactive: 27%.

For the compound `Cc1[nH]c2c(C(=O)NC(c3ccccc3)c3cccnc3)cccc2c1C` (configuration not stated), the intracellular bacterial bioluminescence is inactive: 74.7%. On to `CCOc1ccccc1NC(=O)c1c[nH]c(=O)n(-c2ccc(F)cc2)c1=O`, for which the intracellular bacterial bioluminescence was inactive: 82.3%. As for `O=C(Nc1ncc(Cc2ccc(F)cc2)s1)c1ccc2nccnc2c1`, the intracellular bacterial bioluminescence is inactive: 139%. Next, `Cc1cc2c(cc1NCc1cc3c(C)nn(-c4ccccc4)c3[nH]c1=O)OCCO2`: inactive: 98.8%; `O=C(Nc1ccccc1Cl)c1cccnc1-c1ccsc1`: inactive: 101%; `O=C(O)CCCN1C(=O)c2cccc([N+](=O)[O-])c2C1=O`: inactive: 110%. With `COc1ccccc1NS(=O)(=O)c1cc(C)c2[nH]c(=O)cc(C)c2c1`, the intracellular bacterial bioluminescence is inactive: 125%.
